Data taken from PubChem BioAssay AID1224904, deposited by Broad Institute (2016).

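Selective DUX4 reporter inhibition in doxycycline-induced 293T-iDUX4 cells, scored as Gaussia percent activity minus Italica percent activity, after a 24-hour treatment.
The test concentration is not given here.
Percent difference between the Gaussia and Italica channels; more negative values mean more selective suppression of the DUX4 reporter, and higher values mean less activity.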

Values are in %.
The controls that fix the scale are not given here.
Common to all entries: measured here: selective DUX4 reporter inhibition.
This is a side read-out of the assay, for part of the compounds, not drawn at random.

{"compound": "COc1cccc(S(=O)(=O)N(C)C[C@@H]2OCc3ccccc3-c3c(n(C)c4ccccc34)C(=O)N([C@H](C)CO)C[C@H]2C)c1", "Gaussia minus Italica difference (%)": "-8.624"}
{"compound": "COc1ccccc1C#Cc1ccc([C@@H]2[C@@H](C#N)N(C(=O)C3CCC3)[C@H]2CO)cc1", "Gaussia minus Italica difference (%)": "6.209"}
{"compound": "O=C(C[C@H]1C[C@@H]2c3cc(NS(=O)(=O)c4ccc(F)cc4)ccc3O[C@@H]2[C@@H](CO)O1)NCc1ccc(Oc2ccccc2)cc1", "Gaussia minus Italica difference (%)": "1.586"}
{"compound": "O=C(c1ccccn1)N1CC(=O)N2[C@@H](CO)[C@H](c3ccc(C#CC4CCCC4)cc3)[C@@H]2C1", "Gaussia minus Italica difference (%)": "-8.202"}
{"compound": "O=C(c1ccc(F)cc1)N1CC(=O)N2[C@@H](CO)[C@@H](c3ccc(C#CCC4CCCC4)cc3)[C@@H]2C1", "Gaussia minus Italica difference (%)": "5.073"}
{"compound": "O=C(c1ccc2c(c1)OCO2)N1CC(=O)N2[C@H](C1)[C@H](c1ccc(C#CCC3CCCC3)cc1)[C@@H]2CO", "Gaussia minus Italica difference (%)": "-17.24"}
{"compound": "C[C@@H]1CN([C@@H](C)CO)C(=O)c2c(c3ccccc3n2C)-c2ccccc2CO[C@@H]1CN(C)Cc1cccc2c1OCCCO2", "Gaussia minus Italica difference (%)": "-11.76"}
{"compound": "COc1cccc(-c2ccc3c(c2)[C@H]2[C@H](CCN2S(=O)(=O)c2ccccc2OC)[C@@H](CO)N3C)c1", "Gaussia minus Italica difference (%)": "33"}
{"compound": "COc1cccc(S(=O)(=O)Nc2ccc3c(c2)[C@H]2C[C@H](CC(=O)NCc4ccccc4F)O[C@H](CO)[C@H]2O3)c1", "Gaussia minus Italica difference (%)": "-7.856"}
{"compound": "COc1ccccc1NC(=O)N[C@@H]1CC[C@@H](CC(=O)N2CCC(Cc3ccccc3)CC2)O[C@H]1CO", "Gaussia minus Italica difference (%)": "-11.4"}
{"compound": "O=C(C[C@@H]1CC[C@H]2[C@@H](COC[C@H](O)CN2Cc2cccc(Cl)c2)O1)NCC1CCCCC1", "Gaussia minus Italica difference (%)": "-8.174"}
{"compound": "C[C@H](CO)N1C[C@H](C)[C@@H](CN(C)S(=O)(=O)c2ccccc2F)Oc2ncc(/C=C/c3ccccc3)cc2C1=O", "Gaussia minus Italica difference (%)": "-8.385"}
{"compound": "COc1ccccc1NC(=O)N1CC(=O)N2[C@H](CO)[C@@H](c3ccc(-c4ccc(F)cc4)cc3)[C@@H]2C1", "Gaussia minus Italica difference (%)": "24.92"}
{"compound": "O=C(Nc1ccccc1)[C@@H]1[C@@H](CO)[C@@H]2Cn3c(cccc3=O)[C@@H]2N1Cc1ccccc1Cl", "Gaussia minus Italica difference (%)": "1.138"}
{"compound": "CCCC#Cc1ccc([C@H]2[C@H](CO)N3C(=O)CN(C(=O)Nc4ccccc4F)C[C@@H]23)cc1", "Gaussia minus Italica difference (%)": "-22.86"}
{"compound": "O=C(C[C@H]1C[C@H]2c3cc(NS(=O)(=O)c4ccc(F)cc4)ccc3O[C@H]2[C@H](CO)O1)NCc1ccc(Cl)cc1", "Gaussia minus Italica difference (%)": "-2.029"}
{"compound": "O=C(c1cccnc1)N1CC(=O)N2[C@H](C1)[C@H](c1ccc(C#CCC3CCCC3)cc1)[C@@H]2CO", "Gaussia minus Italica difference (%)": "0.4604"}
{"compound": "COc1ccc(-c2ccc3c(c2)[C@H]2[C@H](CCN2S(=O)(=O)c2ccc(OC)cc2)[C@@H](CO)N3)cc1", "Gaussia minus Italica difference (%)": "3.72"}
{"compound": "Cc1ccc(S(=O)(=O)N2C[C@H](O)COC[C@@H]3O[C@@H](CC(=O)NCc4ccc(Cl)c(Cl)c4)CC[C@H]32)cc1", "Gaussia minus Italica difference (%)": "-9.833"}
{"compound": "C[C@@H]1CN([C@H](C)CO)C(=O)CCCn2nncc2CO[C@@H]1CN(C)Cc1ccc(C(=O)Nc2ccccc2N)cc1", "Gaussia minus Italica difference (%)": "-9.743"}
{"compound": "Cc1ccc(S(=O)(=O)N2CC[C@@H]3[C@@H](CO)Nc4ccc(-c5ccc(C#N)cc5)cc4[C@@H]32)cc1", "Gaussia minus Italica difference (%)": "9.449"}
{"compound": "Fc1cccc(CN2C[C@@H]3N[C@H](C2)C3c2ccc(-c3cncnc3)cc2)c1", "stereo": "stereo partly drawn", "Gaussia minus Italica difference (%)": "-17.41"}
{"compound": "C[C@@H](NC(=O)C[C@@H]1CC[C@H]2[C@@H](COC[C@@H](O)CN2C(=O)Nc2cc(Cl)cc(Cl)c2)O1)c1ccccc1", "Gaussia minus Italica difference (%)": "-2.78"}
{"compound": "N#Cc1ccc(-c2ccc(C3[C@@H]4CN(C(=O)c5cccnc5)C[C@H]3N4)cc2)cc1", "stereo": "stereo partly drawn", "Gaussia minus Italica difference (%)": "-24.16"}
{"compound": "OC[C@@H]1[C@H](c2ccc(C#CC3CCCC3)cc2)[C@H]2CN(CCC(F)(F)F)CCCCN12", "Gaussia minus Italica difference (%)": "-13.35"}
{"compound": "COc1cccc(-c2ccc([C@@H]3[C@@H](CO)N4CCCCN(C(=O)c5ccc6c(c5)OCO6)C[C@@H]34)cc2)c1", "Gaussia minus Italica difference (%)": "3.319"}
{"compound": "C[C@@H](NC(=O)C[C@H]1C[C@@H]2c3cc(NC(=O)Nc4ccccc4F)ccc3O[C@@H]2[C@@H](CO)O1)c1ccccc1", "Gaussia minus Italica difference (%)": "-20.75"}
{"compound": "C[C@@H](C(=O)N(C)C[C@@H]1OCc2ccccc2-c2c(n(C)c3ccccc23)C(=O)N([C@@H](C)CO)C[C@@H]1C)c1ccccc1", "Gaussia minus Italica difference (%)": "-2.701"}
{"compound": "O=C(C[C@@H]1C[C@@H]2c3cc(NS(=O)(=O)c4ccc(F)cc4)ccc3O[C@@H]2[C@@H](CO)O1)NCc1ccc(Oc2ccccc2)cc1", "Gaussia minus Italica difference (%)": "-0.1294"}
{"compound": "O=C(C1CC1)N1CC[C@@H]2[C@H]1c1cc(-c3ccc(F)cc3)ccc1N[C@@H]2CO", "Gaussia minus Italica difference (%)": "-9.796"}
{"compound": "COc1ccc2c3c([nH]c2c1)[C@H](CO)N(Cc1ccc(Cl)cc1)CC31CN(Cc2ccccc2)C1", "Gaussia minus Italica difference (%)": "-19.24"}

For reference, 2 entries once more:

{"compound": "O=C(C[C@@H]1C[C@@H]2c3cc(NS(=O)(=O)c4ccc(F)cc4)ccc3O[C@@H]2[C@@H](CO)O1)NCc1ccc(Oc2ccccc2)cc1", "Gaussia minus Italica difference (%)": "-0.1294"}
{"compound": "COc1ccc(-c2ccc3c(c2)[C@H]2[C@H](CCN2S(=O)(=O)c2ccc(OC)cc2)[C@@H](CO)N3)cc1", "Gaussia minus Italica difference (%)": "3.72"}